No constants are given. Whether binding was seen depends on the method and setting. In cells and extracts the contact can be indirect. Some results given as binding are weak or reduced against the parent protein; the word gives no strength. Where a sequence is shown, tags or fusion partners need not be part of it.
T1: AtMC1^C220A-GFP (catalytically inactive AtMC1 fused to C-terminal GFP), transiently expressed in N. benthamiana (Arabidopsis thaliana) (UniProt Q7XJE6)
T1 sequence: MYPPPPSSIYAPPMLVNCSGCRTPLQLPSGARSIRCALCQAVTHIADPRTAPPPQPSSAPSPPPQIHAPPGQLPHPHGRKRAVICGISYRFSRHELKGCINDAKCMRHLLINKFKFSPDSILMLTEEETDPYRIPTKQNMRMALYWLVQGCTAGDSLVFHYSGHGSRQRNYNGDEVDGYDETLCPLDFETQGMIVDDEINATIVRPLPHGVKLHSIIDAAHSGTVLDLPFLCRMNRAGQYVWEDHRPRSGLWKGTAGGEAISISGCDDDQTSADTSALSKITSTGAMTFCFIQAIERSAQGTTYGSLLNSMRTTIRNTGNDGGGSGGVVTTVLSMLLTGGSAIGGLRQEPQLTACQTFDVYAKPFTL

Amino acid sequences for entries named in this document (tags omitted). A change or cut given only in a name is not applied to a line headed by its entry.
UniProt O48538, whole entry: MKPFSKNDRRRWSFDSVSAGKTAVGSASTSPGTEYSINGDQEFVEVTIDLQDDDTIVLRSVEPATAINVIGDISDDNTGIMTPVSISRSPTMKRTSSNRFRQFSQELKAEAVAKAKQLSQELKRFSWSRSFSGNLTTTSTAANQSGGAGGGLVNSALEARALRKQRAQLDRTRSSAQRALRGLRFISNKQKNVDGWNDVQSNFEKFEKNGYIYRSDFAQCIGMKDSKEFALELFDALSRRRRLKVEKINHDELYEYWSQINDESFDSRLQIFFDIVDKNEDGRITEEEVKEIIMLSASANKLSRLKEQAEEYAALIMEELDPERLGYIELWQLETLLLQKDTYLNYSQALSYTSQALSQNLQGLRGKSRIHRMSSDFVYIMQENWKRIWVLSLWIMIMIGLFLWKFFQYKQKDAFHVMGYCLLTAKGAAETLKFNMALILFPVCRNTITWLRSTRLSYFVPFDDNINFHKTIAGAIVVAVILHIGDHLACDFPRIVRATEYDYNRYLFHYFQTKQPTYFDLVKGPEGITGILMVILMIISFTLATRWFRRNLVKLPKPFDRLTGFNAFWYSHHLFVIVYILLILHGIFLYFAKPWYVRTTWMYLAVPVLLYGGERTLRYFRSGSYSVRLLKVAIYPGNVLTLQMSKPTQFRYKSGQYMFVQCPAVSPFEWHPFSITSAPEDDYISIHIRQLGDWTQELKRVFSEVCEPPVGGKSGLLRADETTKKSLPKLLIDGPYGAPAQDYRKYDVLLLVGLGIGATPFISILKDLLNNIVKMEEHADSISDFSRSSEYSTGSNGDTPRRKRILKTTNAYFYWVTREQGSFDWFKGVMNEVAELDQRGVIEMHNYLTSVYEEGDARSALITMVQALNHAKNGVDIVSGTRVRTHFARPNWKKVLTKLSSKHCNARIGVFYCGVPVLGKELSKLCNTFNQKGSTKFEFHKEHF

T2: AtMC1^C220A-GFP (catalytically inactive AtMC1 fused to C-terminal GFP), stable Arabidopsis transgenic (Arabidopsis thaliana) (UniProt Q7XJE6)
T2 sequence: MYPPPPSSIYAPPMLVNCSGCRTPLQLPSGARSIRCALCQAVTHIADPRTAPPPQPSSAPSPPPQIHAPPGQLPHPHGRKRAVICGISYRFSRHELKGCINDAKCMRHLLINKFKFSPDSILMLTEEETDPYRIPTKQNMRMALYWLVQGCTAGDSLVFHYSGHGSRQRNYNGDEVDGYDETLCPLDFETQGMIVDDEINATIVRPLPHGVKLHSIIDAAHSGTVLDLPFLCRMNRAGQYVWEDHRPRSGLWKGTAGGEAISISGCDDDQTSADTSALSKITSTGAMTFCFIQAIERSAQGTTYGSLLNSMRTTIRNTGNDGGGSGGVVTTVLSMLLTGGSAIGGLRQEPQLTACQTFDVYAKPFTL

T3: AtMC1-GFP (Wt AtMC1 fused to C-terminal GFP), stable Arabidopsis transgenic (atmc1 35S::AtMC1-GFP) (Arabidopsis thaliana) (UniProt Q7XJE6)
T3 sequence: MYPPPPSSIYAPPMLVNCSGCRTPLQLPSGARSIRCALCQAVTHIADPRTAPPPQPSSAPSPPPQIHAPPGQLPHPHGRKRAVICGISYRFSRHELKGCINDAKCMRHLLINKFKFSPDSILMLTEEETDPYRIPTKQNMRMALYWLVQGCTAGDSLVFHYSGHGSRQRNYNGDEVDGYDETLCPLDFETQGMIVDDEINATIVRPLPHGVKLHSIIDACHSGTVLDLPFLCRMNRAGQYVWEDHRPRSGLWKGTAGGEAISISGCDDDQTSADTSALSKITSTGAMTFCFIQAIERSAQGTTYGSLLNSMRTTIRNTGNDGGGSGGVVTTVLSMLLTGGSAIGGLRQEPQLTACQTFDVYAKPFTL


Experiments:
Assay in all cases: co-IP
[1] = molecular target: T1, AtMC1^C220A-GFP (catalytically inactive AtMC1 fused to C-terminal GFP), transiently expressed in N. benthamiana (Arabidopsis thaliana)
[2] = molecular target: T2, AtMC1^C220A-GFP (catalytically inactive AtMC1 fused to C-terminal GFP), stable Arabidopsis transgenic (Arabidopsis thaliana)
[3] = molecular target: T3, AtMC1-GFP (Wt AtMC1 fused to C-terminal GFP), stable Arabidopsis transgenic (atmc1 35S::AtMC1-GFP) (Arabidopsis thaliana)

binding [1]	binding [2]	binding [3]	Molecule
binds			FLAG-RBOHF, transiently expressed in N. benthamiana (from UniProt O48538 1-944) (enzyme)
	binds	binds	RPS2-HA expressed in Arabidopsis under its native promoter (proRPS2::RPS2-HA) (receptor, UniProt Q42484 1-909) MDFISSLIVGCAQVLCESMNMAERRGHKTDLRQAITDLETAIGDLKAIRDDLTLRIQQDGLEGRSCSNRAREWLSAVQVTETKTALLLVRFRRREQRTRMRRRYLSCFGCADYKLCKKVSAILKSIGELRERSEAIKTDGGSIQVTCREIPIKSVVGNTTMMEQVLEFLSEEEERGIIGVYGPGGVGKTTLMQSINNELITKGHQYDVLIWVQMSREFGECTIQQAVGARLGLSWDEKETGENRALKIYRALRQKRFLLLLDDVWEEIDLEKTGVPRPDRENKCKVMFTTRSIALCNNMGAEYKLRVEFLEKKHAWELFCSKVWRKDLLESSSIRRLAEIIVSKCGGLPLALITLGGAMAHRETEEEWIHASEVLTRFPAEMKGMNYVFALLKFSYDNLESDLLRSCFLYCALFPEEHSIEIEQLVEYWVGEGFLTSSHGVNTIYKGYFLIGDLKAACLLETGDEKTQVKMHNVVRSFALWMASEQGTYKELILVEPSMGHTEAPKAENWRQALVISLLDNRIQTLPEKLICPKLTTLMLQQNSSLKKIPTGFFMHMPVLRVLDLSFTSITEIPLSIKYLVELYHLSMSGTKISVLPQELGNLRKLKHLDLQRTQFLQTIPRDAICWLSKLEVLNLYYSYAGWELQSFGEDEAEELGFADLEYLENLTTLGITVLSLETLKTLFEFGALHKHIQHLHVEECNELLYFNLPSLTNHGRNLRRLSIKSCHDLEYLVTPADFENDWLPSLEVLTLHSLHNLTRVWGNSVSQDCLRNIRCINISHCNKLKNVSWVQKLPKLEVIELFDCREIEELISEHESPSVEDPTLFPSLKTLRTRDLPELNSILPSRFSFQKVETLVITNCPRVKKLPFQERRTQMNLPTVYCEEKWWKALEKDQPNEELCYLPRFVPN

Continued, molecule first:

Molecule	binding [1]	binding [2]	binding [3]
RPS2-HA, transiently expressed in N. benthamiana (receptor, UniProt Q42484 1-909) MDFISSLIVGCAQVLCESMNMAERRGHKTDLRQAITDLETAIGDLKAIRDDLTLRIQQDGLEGRSCSNRAREWLSAVQVTETKTALLLVRFRRREQRTRMRRRYLSCFGCADYKLCKKVSAILKSIGELRERSEAIKTDGGSIQVTCREIPIKSVVGNTTMMEQVLEFLSEEEERGIIGVYGPGGVGKTTLMQSINNELITKGHQYDVLIWVQMSREFGECTIQQAVGARLGLSWDEKETGENRALKIYRALRQKRFLLLLDDVWEEIDLEKTGVPRPDRENKCKVMFTTRSIALCNNMGAEYKLRVEFLEKKHAWELFCSKVWRKDLLESSSIRRLAEIIVSKCGGLPLALITLGGAMAHRETEEEWIHASEVLTRFPAEMKGMNYVFALLKFSYDNLESDLLRSCFLYCALFPEEHSIEIEQLVEYWVGEGFLTSSHGVNTIYKGYFLIGDLKAACLLETGDEKTQVKMHNVVRSFALWMASEQGTYKELILVEPSMGHTEAPKAENWRQALVISLLDNRIQTLPEKLICPKLTTLMLQQNSSLKKIPTGFFMHMPVLRVLDLSFTSITEIPLSIKYLVELYHLSMSGTKISVLPQELGNLRKLKHLDLQRTQFLQTIPRDAICWLSKLEVLNLYYSYAGWELQSFGEDEAEELGFADLEYLENLTTLGITVLSLETLKTLFEFGALHKHIQHLHVEECNELLYFNLPSLTNHGRNLRRLSIKSCHDLEYLVTPADFENDWLPSLEVLTLHSLHNLTRVWGNSVSQDCLRNIRCINISHCNKLKNVSWVQKLPKLEVIELFDCREIEELISEHESPSVEDPTLFPSLKTLRTRDLPELNSILPSRFSFQKVETLVITNCPRVKKLPFQERRTQMNLPTVYCEEKWWKALEKDQPNEELCYLPRFVPN	binds		
10xMyc-RLP42, transiently expressed in N. benthamiana (receptor, UniProt Q9LJS0 22-890) SSFFTFNNPAEGPGACGPHQIQAFTQFKNEFDTRACNHSDPWNGVWCDNSTGAVTMLQLRACLSGTLKPNSSLFQFHHLRSLLLPHNNFTSSSISSKFGMLNNLEVLSLSSSGFLAQVPFSFSNLSMLSALDLSKNELTGSLSFVRNLRKLRVLDVSYNHFSGILNPNSSLFELHHLIYLNLRYNNFTSSSLPYEFGNLNKLEVLDVSSNSFFGQVPPTISNLTQLTELYLPLNDFTGSLPLVQNLTKLSILHLFGNHFSGTIPSSLFTMPFLSSIYLNKNNLSGSIEVPNSSSSSRLEHLYLGKNHLGKILEPIAKLVNLKELDLSFLNTSHPIDLSLFSSLKSLLLLDLSGDWISKASLTLDSYIPSTLEVLRLEHCDISEFPNVFKTLHNLEYIALSNNRISGKFPEWLWSLPRLSSVFITDNLLTGFEGSSEVLVNSSVQILSLDTNSLEGALPHLPLSINYFSAIDNRFGGDIPLSICNRSSLDVLDLSYNNFSGQIPPCLSNLLYLKLRKNNLEGSIPDKYYVDTPLRSFDVGYNRLTGKLPRSLINCSALQFLSVDHNGIKDTFPFYLKALPKLQVLLLSSNEFYGPLSPPNQGPLGFPELRILEIAGNKLTGSLPPDFFVNWKASSHTMNEDLGLYMVYSKVIFGNYHLTYYETIDLRYKGLSMEQENVLTSSATIDLSGNRLEGEIPESLGLLKALIALNLSNNAFTGHIPLSLANLKKIESLDLSSNQLSGTIPNGLGTLSFLAYMNVSHNQLNGEIPQGTQITGQPKSSFEGNAGLCGFPLQESCFGTNAPPAQKPKEEEEAEEDEQELNWKAVAIGYGVGVLLGLAIAQLIASYKPEWLVCLVKSRNPLRSFFGFEY	binds		

Reference: article doi:10.1101/2025.01.31.635913
